Results are given in words; binding and its absence hold for the method and conditions named. For part of these data: Binding seen in cells or lysates may run through a third protein. Some binding calls cover weakened binding; strength is not graded here. For part of these data: Sequences can lack the tags named with a protein.

One experiment deals with T1, GFP-Tks5-mito (human) (UniProt Q5TCZ1).
T1 sequence: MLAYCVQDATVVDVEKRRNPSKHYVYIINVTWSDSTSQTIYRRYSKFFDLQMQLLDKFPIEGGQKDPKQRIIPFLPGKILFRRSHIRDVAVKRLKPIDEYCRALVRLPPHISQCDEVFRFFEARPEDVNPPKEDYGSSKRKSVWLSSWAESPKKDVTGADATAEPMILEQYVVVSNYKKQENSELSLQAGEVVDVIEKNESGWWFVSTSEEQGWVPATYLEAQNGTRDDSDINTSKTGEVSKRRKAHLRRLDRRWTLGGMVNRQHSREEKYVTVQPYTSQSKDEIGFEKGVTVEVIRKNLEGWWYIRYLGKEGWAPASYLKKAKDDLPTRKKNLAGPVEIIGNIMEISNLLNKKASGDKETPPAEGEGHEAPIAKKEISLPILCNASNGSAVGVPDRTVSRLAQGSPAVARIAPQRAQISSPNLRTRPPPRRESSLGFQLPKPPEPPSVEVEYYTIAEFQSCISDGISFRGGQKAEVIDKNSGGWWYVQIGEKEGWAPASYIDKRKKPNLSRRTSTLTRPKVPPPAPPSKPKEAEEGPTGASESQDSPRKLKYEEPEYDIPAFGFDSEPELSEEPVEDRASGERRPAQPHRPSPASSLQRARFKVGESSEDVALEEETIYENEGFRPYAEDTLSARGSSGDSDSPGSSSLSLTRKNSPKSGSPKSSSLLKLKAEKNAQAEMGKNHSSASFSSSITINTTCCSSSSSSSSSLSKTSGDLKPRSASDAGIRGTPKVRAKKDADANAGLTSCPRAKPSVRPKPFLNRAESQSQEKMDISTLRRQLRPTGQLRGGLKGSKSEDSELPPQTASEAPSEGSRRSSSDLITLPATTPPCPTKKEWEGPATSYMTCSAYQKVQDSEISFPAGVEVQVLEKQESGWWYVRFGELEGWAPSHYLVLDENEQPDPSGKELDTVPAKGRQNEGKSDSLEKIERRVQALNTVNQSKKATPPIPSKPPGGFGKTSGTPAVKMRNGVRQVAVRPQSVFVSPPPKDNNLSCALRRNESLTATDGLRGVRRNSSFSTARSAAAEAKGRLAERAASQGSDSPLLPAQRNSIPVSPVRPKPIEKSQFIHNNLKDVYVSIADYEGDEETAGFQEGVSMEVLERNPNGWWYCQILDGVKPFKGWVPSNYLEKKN
In words: recruitment to mitochondria by a mitochondrially targeted partner (immunofluorescence); mito-targeted GFP-Tks5 co-expressed with cytosolic Myc-tagged β-DG cytoplasmic domain in myoblast cells; localisation by fluorescence microscopy.

Experiment [1] concerns the target T2, β-dystroglycan, endogenous in mouse myoblasts (mouse (endogenous in H-2K^b-tsA58 myoblasts)) (UniProt Q62165).
T2 sequence: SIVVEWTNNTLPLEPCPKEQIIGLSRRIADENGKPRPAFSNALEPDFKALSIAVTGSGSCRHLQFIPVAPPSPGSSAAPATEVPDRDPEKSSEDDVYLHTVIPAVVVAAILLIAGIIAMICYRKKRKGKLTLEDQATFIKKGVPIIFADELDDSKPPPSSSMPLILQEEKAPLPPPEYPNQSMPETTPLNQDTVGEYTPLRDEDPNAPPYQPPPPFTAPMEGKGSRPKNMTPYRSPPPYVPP
In words: co-IP; myoblast extracts in RIPA buffer at 4°C overnight; extensive washes and a final wash in RIPA buffer with 0.6 M LiCl2; SDS-PAGE and western blotting. On the technique in general: A western blot detects proteins with antibodies after separation by electrophoresis.

In experiment [2] the target is T3, Tks5, endogenous in mouse myoblasts (mouse (endogenous in H-2K^b-tsA58 myoblasts)) (UniProt O89032).
T3 sequence: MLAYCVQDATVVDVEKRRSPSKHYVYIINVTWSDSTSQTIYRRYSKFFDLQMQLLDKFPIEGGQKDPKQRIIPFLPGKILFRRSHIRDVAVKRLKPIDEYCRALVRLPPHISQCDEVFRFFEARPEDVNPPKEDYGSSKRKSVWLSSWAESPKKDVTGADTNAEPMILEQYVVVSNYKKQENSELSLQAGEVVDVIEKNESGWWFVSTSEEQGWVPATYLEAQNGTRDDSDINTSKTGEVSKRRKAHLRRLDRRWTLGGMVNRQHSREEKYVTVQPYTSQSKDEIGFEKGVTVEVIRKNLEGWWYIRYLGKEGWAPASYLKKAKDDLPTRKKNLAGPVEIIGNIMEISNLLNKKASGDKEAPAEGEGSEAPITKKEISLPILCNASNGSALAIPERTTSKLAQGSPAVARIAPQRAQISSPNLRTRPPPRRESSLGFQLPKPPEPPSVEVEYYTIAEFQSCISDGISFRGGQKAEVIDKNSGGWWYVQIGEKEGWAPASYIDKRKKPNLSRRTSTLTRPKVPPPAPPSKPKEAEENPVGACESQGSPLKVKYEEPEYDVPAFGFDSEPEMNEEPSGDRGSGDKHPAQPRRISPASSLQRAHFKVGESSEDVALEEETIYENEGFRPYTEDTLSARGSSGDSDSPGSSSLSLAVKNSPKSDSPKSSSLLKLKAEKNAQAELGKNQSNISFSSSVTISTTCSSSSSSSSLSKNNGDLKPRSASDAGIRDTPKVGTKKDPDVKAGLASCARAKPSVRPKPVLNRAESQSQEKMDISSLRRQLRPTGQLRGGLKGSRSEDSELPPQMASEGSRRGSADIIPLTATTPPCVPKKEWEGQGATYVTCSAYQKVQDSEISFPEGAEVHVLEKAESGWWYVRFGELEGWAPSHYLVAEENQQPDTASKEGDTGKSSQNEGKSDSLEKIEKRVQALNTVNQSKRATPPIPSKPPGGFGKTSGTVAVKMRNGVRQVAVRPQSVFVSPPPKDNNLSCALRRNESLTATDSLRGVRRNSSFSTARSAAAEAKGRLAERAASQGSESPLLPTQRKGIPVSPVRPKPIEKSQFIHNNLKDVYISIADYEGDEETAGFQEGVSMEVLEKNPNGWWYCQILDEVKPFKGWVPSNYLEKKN
The experiment is described as above.

B1: Myc-tagged cytoplasmic domain of β-dystroglycan (domain or fragment, UniProt Q62165 773-893)
chain: YRKKRKGKLTLEDQATFIKKGVPIIFADELDDSKPPPSSSMPLILQEEKAPLPPPEYPNQSMPETTPLNQDTVGEYTPLRDEDPNAPPYQPPPPFTAPMEGKGSRPKNMTPYRSPPPYVPP
As for B1, in the experiment with GFP-Tks5-mito (human), the binding entry is on record as “binds”.

B2: Tks5, endogenous in mouse myoblasts (protein, UniProt O89032 1-1124)
chain: MLAYCVQDATVVDVEKRRSPSKHYVYIINVTWSDSTSQTIYRRYSKFFDLQMQLLDKFPIEGGQKDPKQRIIPFLPGKILFRRSHIRDVAVKRLKPIDEYCRALVRLPPHISQCDEVFRFFEARPEDVNPPKEDYGSSKRKSVWLSSWAESPKKDVTGADTNAEPMILEQYVVVSNYKKQENSELSLQAGEVVDVIEKNESGWWFVSTSEEQGWVPATYLEAQNGTRDDSDINTSKTGEVSKRRKAHLRRLDRRWTLGGMVNRQHSREEKYVTVQPYTSQSKDEIGFEKGVTVEVIRKNLEGWWYIRYLGKEGWAPASYLKKAKDDLPTRKKNLAGPVEIIGNIMEISNLLNKKASGDKEAPAEGEGSEAPITKKEISLPILCNASNGSALAIPERTTSKLAQGSPAVARIAPQRAQISSPNLRTRPPPRRESSLGFQLPKPPEPPSVEVEYYTIAEFQSCISDGISFRGGQKAEVIDKNSGGWWYVQIGEKEGWAPASYIDKRKKPNLSRRTSTLTRPKVPPPAPPSKPKEAEENPVGACESQGSPLKVKYEEPEYDVPAFGFDSEPEMNEEPSGDRGSGDKHPAQPRRISPASSLQRAHFKVGESSEDVALEEETIYENEGFRPYTEDTLSARGSSGDSDSPGSSSLSLAVKNSPKSDSPKSSSLLKLKAEKNAQAELGKNQSNISFSSSVTISTTCSSSSSSSSLSKNNGDLKPRSASDAGIRDTPKVGTKKDPDVKAGLASCARAKPSVRPKPVLNRAESQSQEKMDISSLRRQLRPTGQLRGGLKGSRSEDSELPPQMASEGSRRGSADIIPLTATTPPCVPKKEWEGQGATYVTCSAYQKVQDSEISFPEGAEVHVLEKAESGWWYVRFGELEGWAPSHYLVAEENQQPDTASKEGDTGKSSQNEGKSDSLEKIEKRVQALNTVNQSKRATPPIPSKPPGGFGKTSGTVAVKMRNGVRQVAVRPQSVFVSPPPKDNNLSCALRRNESLTATDSLRGVRRNSSFSTARSAAAEAKGRLAERAASQGSESPLLPTQRKGIPVSPVRPKPIEKSQFIHNNLKDVYISIADYEGDEETAGFQEGVSMEVLEKNPNGWWYCQILDEVKPFKGWVPSNYLEKKN
Take B2: the binding result in experiment [1] is recorded as “binds”.

B3: β-dystroglycan, endogenous in mouse myoblasts (receptor, UniProt Q62165 652-893)
chain: SIVVEWTNNTLPLEPCPKEQIIGLSRRIADENGKPRPAFSNALEPDFKALSIAVTGSGSCRHLQFIPVAPPSPGSSAAPATEVPDRDPEKSSEDDVYLHTVIPAVVVAAILLIAGIIAMICYRKKRKGKLTLEDQATFIKKGVPIIFADELDDSKPPPSSSMPLILQEEKAPLPPPEYPNQSMPETTPLNQDTVGEYTPLRDEDPNAPPYQPPPPFTAPMEGKGSRPKNMTPYRSPPPYVPP
Turning to B3, the binding entry in experiment [2] is “binds”.

Values taken from paper PMC2572840.
